Drawing on publication doi:10.1101/2021.01.13.426575, this text covers binding for 5 substances.

By UniProt entry, the sequences of proteins in these tests, tags left out. Where a name states a change or a piece, a line headed by the entry shows the natural chain unless it says otherwise. Residues count along the entry.
UniProt Q9Y2G2, whole entry: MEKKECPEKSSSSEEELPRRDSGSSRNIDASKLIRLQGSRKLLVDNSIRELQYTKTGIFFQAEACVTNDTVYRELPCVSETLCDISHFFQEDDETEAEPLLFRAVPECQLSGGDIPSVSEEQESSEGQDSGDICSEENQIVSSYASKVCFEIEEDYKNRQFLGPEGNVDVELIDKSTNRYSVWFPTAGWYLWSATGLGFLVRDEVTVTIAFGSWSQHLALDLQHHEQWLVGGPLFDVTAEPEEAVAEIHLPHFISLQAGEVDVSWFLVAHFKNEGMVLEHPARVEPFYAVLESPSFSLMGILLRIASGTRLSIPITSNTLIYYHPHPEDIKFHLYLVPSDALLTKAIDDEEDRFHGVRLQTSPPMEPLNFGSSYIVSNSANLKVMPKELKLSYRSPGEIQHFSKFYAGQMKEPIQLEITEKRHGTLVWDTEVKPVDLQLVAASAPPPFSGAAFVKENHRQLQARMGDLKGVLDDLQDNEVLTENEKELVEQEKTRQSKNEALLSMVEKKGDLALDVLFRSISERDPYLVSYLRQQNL
UniProt Q9Y2G2, 297-537: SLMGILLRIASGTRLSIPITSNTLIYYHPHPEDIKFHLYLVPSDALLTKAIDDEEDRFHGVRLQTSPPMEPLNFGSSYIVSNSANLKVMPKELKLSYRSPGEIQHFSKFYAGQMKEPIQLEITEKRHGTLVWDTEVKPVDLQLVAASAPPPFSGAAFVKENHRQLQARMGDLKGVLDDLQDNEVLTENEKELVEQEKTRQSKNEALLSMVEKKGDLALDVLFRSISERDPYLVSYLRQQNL
UniProt Q86TI2, whole entry: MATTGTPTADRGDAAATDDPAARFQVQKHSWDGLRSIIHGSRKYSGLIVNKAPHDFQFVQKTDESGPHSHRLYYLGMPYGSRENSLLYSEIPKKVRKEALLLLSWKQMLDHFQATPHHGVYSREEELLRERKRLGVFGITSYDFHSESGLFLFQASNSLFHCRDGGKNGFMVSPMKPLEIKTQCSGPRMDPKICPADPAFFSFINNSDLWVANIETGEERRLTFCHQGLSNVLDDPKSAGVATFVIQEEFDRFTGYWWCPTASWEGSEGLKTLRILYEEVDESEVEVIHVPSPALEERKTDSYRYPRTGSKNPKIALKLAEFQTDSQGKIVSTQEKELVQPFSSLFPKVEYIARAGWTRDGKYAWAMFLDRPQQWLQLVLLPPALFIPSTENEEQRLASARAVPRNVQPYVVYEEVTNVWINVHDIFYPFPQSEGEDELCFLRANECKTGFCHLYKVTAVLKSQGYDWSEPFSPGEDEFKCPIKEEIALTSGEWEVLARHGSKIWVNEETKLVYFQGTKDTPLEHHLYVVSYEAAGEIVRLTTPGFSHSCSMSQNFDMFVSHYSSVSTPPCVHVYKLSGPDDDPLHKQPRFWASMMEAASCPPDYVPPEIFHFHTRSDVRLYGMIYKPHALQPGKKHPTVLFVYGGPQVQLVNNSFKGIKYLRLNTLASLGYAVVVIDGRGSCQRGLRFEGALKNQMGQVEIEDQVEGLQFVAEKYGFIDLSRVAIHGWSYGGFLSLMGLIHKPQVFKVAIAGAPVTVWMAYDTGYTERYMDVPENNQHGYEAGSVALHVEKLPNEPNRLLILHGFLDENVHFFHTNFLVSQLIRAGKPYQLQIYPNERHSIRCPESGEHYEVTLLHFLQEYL

Assay in all cases: co-IP
Assay [1] concerns the target MYC-tagged CARD8-FIIND-S297A (human) (UniProt Q9Y2G2).
Assay [2] has as its target FLAG-tagged CARD8-FIIND-S297A (human) (UniProt Q9Y2G2).
Assay [3] has as its target HA-tagged full-length CARD8, wild type (Tet-inducible, pInducer20) (human) (UniProt Q9Y2G2).
Assay [4] deals with HA-tagged full-length CARD8 E274R (interface I mutant) (human) (UniProt Q9Y2G2).
Assay [5] has as its target HA-tagged full-length CARD8 S297A (Tet-inducible, pInducer20) (human) (UniProt Q9Y2G2).
Assay [6] concerns the target FLAG-tagged DPP9 (DPP9S), wild type (human) (UniProt Q86TI2).
The target in assay [7] is FLAG-tagged CARD8-CT (UbN-CARD8-CT, S297-L537) (human) (UniProt Q9Y2G2).

These are yes or no findings as the source states them, for the method shown. Binding seen in cells or lysates may run through a third protein. Some binding calls cover weakened binding; strength is not graded here.

On to “DPP9, endogenous in HEK 293T cells (from UniProt Q86TI2 1-863) (enzyme)”, for which the binding result in assay [1] and in assay [2] was “binds” in each case. As to “DPP9, endogenous in THP-1 cells (from UniProt Q86TI2 1-863) (enzyme)”, the binding result in assay [3] is recorded as “binds”; in assay [4] it was “no binding”; in assay [5], “binds”. With “His-tagged CARD8 (Figure 3B) (from UniProt Q9Y2G2-5 1-537)”, the binding entry in assay [6] was “binds”.

For “MYC-tagged CARD8-FIIND-S297A (from UniProt Q9Y2G2-5 161-446) (domain or fragment)”, the binding entry in assay [7] is recorded as “binds”. Regarding “MYC-tagged full-length CARD8 S297A (from UniProt Q9Y2G2-5 1-537)”, the binding result in assay [6] is “binds”.
